From patent publication US20180282418A1
Results are given in words; binding and its absence hold for the method and conditions named. Binding seen in cells or lysates may run through a third protein. Some entries that bind do so weakly or less than the wild type. For some of these results: Where a sequence is shown, tags or fusion partners need not be part of it.

Amino acid sequences for entries named in this document (tags omitted). A change or cut given only in a name is not applied to a line headed by its entry.
UniProt Q86T13: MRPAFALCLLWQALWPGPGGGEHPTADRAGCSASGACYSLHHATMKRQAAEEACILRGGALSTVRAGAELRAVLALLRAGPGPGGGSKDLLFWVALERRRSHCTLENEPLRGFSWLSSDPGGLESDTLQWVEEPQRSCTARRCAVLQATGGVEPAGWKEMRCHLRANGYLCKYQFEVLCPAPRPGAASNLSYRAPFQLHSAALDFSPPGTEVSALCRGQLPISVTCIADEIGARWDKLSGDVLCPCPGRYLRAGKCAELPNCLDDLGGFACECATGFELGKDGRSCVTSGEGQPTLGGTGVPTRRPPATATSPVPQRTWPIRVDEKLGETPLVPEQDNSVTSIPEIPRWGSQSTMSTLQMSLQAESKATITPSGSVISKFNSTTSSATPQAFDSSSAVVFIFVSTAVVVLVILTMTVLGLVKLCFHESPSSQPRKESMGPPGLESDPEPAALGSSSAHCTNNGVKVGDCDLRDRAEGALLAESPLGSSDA

What was measured:
[1] = biological target: T1, endogenous MMRN2 from HUVEC whole cell lysates (human) (UniProt Q9H8L6); assay: co-immunoprecipitation from HUVEC lysate
T1 sequence: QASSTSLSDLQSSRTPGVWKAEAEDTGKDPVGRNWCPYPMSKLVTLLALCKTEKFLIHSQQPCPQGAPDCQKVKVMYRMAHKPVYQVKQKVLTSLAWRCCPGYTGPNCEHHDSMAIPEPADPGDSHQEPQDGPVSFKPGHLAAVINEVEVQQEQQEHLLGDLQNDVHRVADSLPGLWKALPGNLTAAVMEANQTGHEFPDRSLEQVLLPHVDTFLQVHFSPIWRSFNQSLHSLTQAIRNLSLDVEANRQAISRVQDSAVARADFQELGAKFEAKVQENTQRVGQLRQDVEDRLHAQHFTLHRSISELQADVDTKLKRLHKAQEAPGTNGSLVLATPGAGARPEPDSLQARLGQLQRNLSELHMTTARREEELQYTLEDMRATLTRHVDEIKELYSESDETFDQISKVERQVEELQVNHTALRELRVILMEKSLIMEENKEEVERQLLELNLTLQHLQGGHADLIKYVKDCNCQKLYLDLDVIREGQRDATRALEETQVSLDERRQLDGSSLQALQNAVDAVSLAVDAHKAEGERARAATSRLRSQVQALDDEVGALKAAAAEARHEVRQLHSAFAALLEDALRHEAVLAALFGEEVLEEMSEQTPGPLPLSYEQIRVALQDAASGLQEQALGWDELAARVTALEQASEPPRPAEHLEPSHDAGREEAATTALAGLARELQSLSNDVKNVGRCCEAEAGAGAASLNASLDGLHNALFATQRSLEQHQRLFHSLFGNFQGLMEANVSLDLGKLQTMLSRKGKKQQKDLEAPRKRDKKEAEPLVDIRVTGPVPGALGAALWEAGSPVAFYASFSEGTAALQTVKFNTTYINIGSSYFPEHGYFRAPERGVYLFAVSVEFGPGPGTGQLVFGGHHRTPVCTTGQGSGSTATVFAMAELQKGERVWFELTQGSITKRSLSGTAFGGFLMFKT

[2] = biological target: T1, endogenous MMRN2 from HUVEC whole cell lysates (human); assay: co-immunoprecipitation from HUVEC lysate, Western blot (FIG. 4B)
[3] = biological target: T1, endogenous MMRN2 from HUVEC whole cell lysates (human); assay: co-immunoprecipitation from HUVEC whole cell lysate with polyclonal anti-CLEC14A, Western blot
[4] = biological target: T2, full-length human MMRN2 with a His tag overexpressed in HEK293T cells (human) (UniProt Q9H8L6); assay: pull-down of His-tagged MMRN2 from HEK293T lysate by CLEC14A-ECD-Fc on protein A beads (FIG. 12)
T2 sequence: T1 sequence

| binding [1] | binding [2] | binding [3] | binding [4] | Substance |
| --- | --- | --- | --- | --- |
| binds | binds | binds |  | endogenous human CLEC14A of HUVEC (from UniProt Q86T13 22-490) (receptor) |
|  |  |  | binds | human CLEC14A extracellular domain protein tagged with human Fc (from UniProt Q86T13 22-396) (Fc fusion) |
